We go through 37 targets from the supplement of paper PMC11006884.

Only a part is listed here, and it is no random draw. This is a noisy data set.

Compound in the assay: COC(=O)/C=C/c1ccccc1 [methyl cinnamate]
The experiment in a line: log2 ratio of iodoacetamide-alkyne labeling of the cysteine site, DMSO over compound (competition); higher = stronger covalent engagement of the cysteine by the compound, active = 1 or more. To be noted: 500 µM; treatment time 1 h; system: HEK293T cell lysate. A digest of the protocol: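 Three replicates, each with duplicate channels, were prepared from HEK293T lysate (2 mg/mL) treated with vehicle or electrophile at 500 µM for 1 h at ambient temperature. Iodoacetamide alkyne was then applied for 1 h, and samples were clicked to sCIP-TMT reagents, pooled, trypsin-digested overnight at 37 °C, enriched on streptavidin, acid-eluted and analysed on Orbitrap Eclipse LC-MS/MS with FAIMS, with FragPipe quantification. The log2 competition ratio per cysteine is the mean control-channel divided by the mean compound-channel reporter intensity. Cysteines quantified in only one replicate were left out.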
Regarding NDUFS1 C128 (UniProt P28331), the “log2 ratio of iodoacetamide-alkyne labeling” value (shortened to “log2 ratio”) was inactive: -0.0316.

For the target TCP1 C236 (UniProt P17987), the “log2 ratio” value was inactive: 0.216. As for FLNA C1260 (UniProt P21333), the figure is inactive: 0.318; as for ACAT1 C413 (UniProt P24752), inactive: 0.175. Next, TKT C386 (UniProt P29401): inactive: -0.162; UniProt P28482_C161: inactive: -0.0862; UniProt P28066_C76: inactive: -0.0805.

Take CHM C564 (UniProt P24386): the “log2 ratio” value is inactive: -0.092. As for FLNA C2601 (UniProt P21333), the figure is inactive: 0.187; as for BCKDHB C177 (UniProt P21953), inactive: 0.0562; as for LAP3 C445 (UniProt P28838), inactive: 0.0705. As for FBL C268 (UniProt P22087), the figure is inactive: 0.163. Next, PML C338 (UniProt P29590): inactive: 0.362; VARS C340 (UniProt P26640): inactive: -0.15; ANXA7 C327 (UniProt P20073): inactive: 0.0817. With PTPN1 C32 (UniProt P18031), the “log2 ratio” value was inactive: 0.0773. As for FLNA C649 (UniProt P21333), the figure is inactive: -0.307. As for YWHAQ C94 (UniProt P27348), the figure is inactive: -0.0506; as for COMT C241 (UniProt P21964), inactive: 0.0166.

Consider PTBP1 C23 (UniProt P26599), for which the “log2 ratio” value was inactive: 0.177. As for MAP4 C635 (UniProt P27816), the figure is inactive: 0.349; as for UniProt P28290_C448, inactive: 0.0774. Next, GART C134 (UniProt P22102): inactive: 0.132; APEX1 C208 (UniProt P27695): inactive: -0.223; APC C352 (UniProt P25054): inactive: -0.18. As for NDUFS1 C226 (UniProt P28331), the figure is inactive: -0.192. As for CANX C160 (UniProt P27824), the “log2 ratio” value is inactive: 0.237. Next, VDAC1 C232 (UniProt P21796): inactive: 0.12. In the case of ARNT C380 (UniProt P27540), the “log2 ratio” value is inactive: 0.122. Next, RPL7 C186 (UniProt P18124): inactive: 0.0435. As for TUBG1 C201 (UniProt P23258), the figure is inactive: 0.114; as for UniProt P25398_C92, inactive: 0.218. As to WARS C274 (UniProt P23381), the “log2 ratio” value is inactive: 0.289.

For ACAT1 C142 (UniProt P24752), the “log2 ratio” value was inactive: -0.249. Next, UniProt P19784_C336: inactive: 0.294.

Consider RRM1 C26 (UniProt P23921), for which the “log2 ratio” value was inactive: -0.0588. As for GART C291 (UniProt P22102), the figure is inactive: 0.191.
